Measurements taken from patent US20010044102.
For at least one entry, the source does not settle the construct or the ends of the probe. For some assays here: Negatives hold for the conditions tested.

Columns and labels:
[1] = system: GST-C92 Myc/Max heterodimer; assay: EMSA; settings: purified recombinant protein; protein details: GST on Myc C-terminal 92 aa (C92Myc)
[2] = system: c-Myc alone (no Max); assay: EMSA; settings: Myc alone, purified recombinant protein
[3] = system: c-Myc (pM21 expression); assay: activity in cells; settings: luciferase, NIH 3T3, single site; protein in cells
[4] = system: GST-C92 Myc/Max heterodimer; assay: pull-down; settings: purified recombinant protein, protein details: GST on Myc C-terminal 92 aa (C92Myc), label: 32P end
[5] = Hinf I digest, glutathione sepharose, also EMSA (p109)

“ACTACAGACACGTGCCACCACACCCAA (double strand) [MB3 (A3) oligo]”: binds [1]; no binding ([2]; similar results stated for MB3).

For “GAGTCGGGATGAAAGTTGAACAGGACACTTTCTGCTTTTCAGAAGTTGGGAAACGCACAAGACATGTGCTTAGCAAACGGGATGCCAGAGATTGAAGGGAAAGTAGCTCTTCCGCGGGAAACACCGTGGGATGCATTTTTTGCTATCAGGAAAAGCCCAGGAAGCTTTCTGAAAGTTGGGTAAAAAGACCTGGCCTTAGGAAAGCAGCAGAGTGGACATCAGGAATGTGCACAGGGCGAGGGACTGAGATGATTTTACATAAACGCCAGGAAAGGAAATGCCATGGTCCTTTGTTGAGAAGGAACAAAGATCACAGCAAACGAAGATCCTGAGGATGGTTTAGAAAAGGGTGAAAGTGAGTGCCTAGAAGAGCCTGATTTTCCCGCGGGGGTAGATT (double strand) [cdc25A F2 fragment]”, the “activity on this sequence” value [3] was “active” and the binding result [4, 5] was “binds”.

With “GAGTCGTGTTTGTGTTTGACCCGCGGGCGCCGGTGGCGGCGGCCGAGGCCGGTGTCGGCGGGGCGGGGCGGTCGCGGCGGAGGCAGAGGAAGAGGGAGCGGGAGCTCTGCGAGGCCGGGCGCCGCCATGGAACTAGGCCCGGAGCCCCCGCACCGCCGCCGCCTGCTCTTCGCCTGCAGCCCCCCTCCCGCGTCGCAGCCCGTCGTGAAGGCGCTATTTGGCGCTTCAGCCGCCGGGGGACTGTCGCCTGTCACCAACCTGACCGTCACTATGGACCAGCTGCAGGGTCTTGGCAGGTAAGGAGAGACCGCGGGCGGTGCTCCGGGCCCCTGGCCTCGGTGTCGGCCTTGGAGAGTTCAGGCCAGGAAACGGACCGGGAGAAGGGCGAGACCCGTCCGTCCGGGTTCGCCGCTCGGGGACAGCCGGGCTAGGGCCTGCCATGTGCACCCCGCCCGGGCGGAATGTTGGCCGGGAGAGGCCGTCGGGACTTCCAGGGGAAGAGGTGGAGATCCTTGGGCCTAAGCCCGACCAGGCCCCCC (double strand) [cdc25A F1 fragment]” the “activity on this sequence” value [3] was “active” and the binding result [4, 5] was “binds”.

“GCACAAGACATGTGCTTAGCAAACGGG (double strand) [MB2 (A2) oligo]”: binds [1]; no binding ([2]; similar results stated for MB2).

“GGGCCTGCCATGTGCACCCCGCCCGGG (double strand) [MB1 (A1) oligo]”: binds [1]; no binding ([2]; no Max).

“TGTGCGGCCACGTGTCGCGAGGCCCCG (double strand) [cdc25B Hinf I fragment with Myc site B1]”: binds ([4]; single cdc25B fragment bound, only site region sequence listed).
